In paper PMC4993455:
No constants are given. Whether binding was seen depends on the method and setting.

Sequences of proteins named here, by UniProt entry; tags and fusion partners are left off. A change or cut given only in a name is not applied to a line headed by its entry. A line that says so, or that is headed by a name, gives the form on record, which may keep a tag or linker.
GST-PDRG1 (Q642A0, form named): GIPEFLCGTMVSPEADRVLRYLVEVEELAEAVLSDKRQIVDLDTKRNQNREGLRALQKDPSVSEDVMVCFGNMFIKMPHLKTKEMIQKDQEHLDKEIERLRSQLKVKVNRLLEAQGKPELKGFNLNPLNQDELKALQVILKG

Assays:
GST-PDRG1 (rat) [1] = biological target: GST-PDRG1 (rat) (UniProt Q642A0); assay: pull-down; Glutathione-Sepharose loaded with GST-PDRG1 and washed; incubated 1 hour at 4°C with the pre-formed hetero-oligomer MAT II (MATα2 + MATβ, purified, 100 μg) plus excess GST extract; blots with anti-MATα2 and anti-MATβ; both purified
GST-PDRG1 (rat) [2] = biological target: GST-PDRG1 (rat) (UniProt Q642A0); assay: pull-down; Glutathione-Sepharose loaded with GST-PDRG1 or truncated forms and washed; incubated 1 hour at 4°C with recombinant MATα2 or MATβ alone (purified, 100 μg; extracts also named in the methods) plus excess GST extract; blots with anti-MATα2 and anti-MATβ; both purified

B1: recombinant human methionine adenosyltransferase regulatory β-subunit (MATβ) (protein, UniProt Q9NZL9 1-334)
chain: MVGREKELSIHFVPGSCRLVEEEVNIPNRRVLVTGATGLLGRAVHKEFQQNNWHAVGCGFRRARPKFEQVNLLDSNAVHHIIHDFQPHVIVHCAAERRPDVVENQPDAASQLNVDASGNLAKEAAAVGAFLIYISSDYVFDGTNPPYREEDIPAPLNLYGKTKLDGEKAVLENNLGAAVLRIPILYGEVEKLEESAVTVMFDKVQFSNKSANMDHWQQRFPTHVKDVATVCRQLAEKRMLDPSIKGTFHWSGNEQMTKYEMACAIADAFNLPSSHLRPITDSPVLGAQRPRNAQLDCSKLETLGIGQRTPFRIGIKESLWPFLIDKRWRQTVFH
In the case of B1, the binding (GST-PDRG1 (rat) [1]) is reported as “no binding” and the binding (GST-PDRG1 (rat) [2]) is reported as “no binding”.
